Measurements as given in the supplement of paper PMC4604168 (melanoma cell lines).
The other results are listed elsewhere or left out. Single values are uncertain, as repeats are few or missing.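 Cells were imaged in 1,536-well plates, and nuclei stained with an antibody against cleaved PARP were counted against all DNA-stained nuclei to give the apoptosis fraction. Screening doses were chosen to leave most cells alive, and resting and induced cleaved-PARP levels differ strongly between cell lines.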

What follows are compounds tested on SkMel28 (assay: cleaved PARP positive nuclei fraction relative to DMSO control; melanoma cells; higher = more apoptosis). Conditions: library dose: low library concentration; 72 h.

Compound | cleaved PARP positive nuclei fraction
NC(=O)c1ccc(N(C(N)=O)c2c(F)cccc2F)nc1-c1ccc(F)cc1F + Nc1nc(F)nc2c1ncn2[C@@H]1O[C@H](CO)[C@@H](O)[C@@H]1O [fludarabine] (first compound 0.4 µM, partner dose 0.2 µM) | 137%
Cn1sc(=O)n(Cc2ccccc2)c1=O + CNC(=O)c1cc(Oc2ccc(NC(=O)Nc3ccc(Cl)c(C(F)(F)F)c3)cc2)ccn1 [sorafenib] (first compound 0.4 µM, partner dose 0.4 µM) | 44%
COc1ccc(C2=N[C@@H](c3ccc(Cl)cc3)[C@@H](c3ccc(Cl)cc3)N2C(=O)N2CCNC(=O)C2)c(OC(C)C)c1 [Nutlin-3] + CN(c1ncccc1CNc1nc(Nc2ccc3c(c2)CC(=O)N3)ncc1C(F)(F)F)S(C)(=O)=O [PF562271] (first compound 0.1 µM, partner dose 0.08 µM) | 68.2%
CN(c1ncccc1CNc1nc(Nc2ccc3c(c2)CC(=O)N3)ncc1C(F)(F)F)S(C)(=O)=O + Cn1c(=O)n(-c2ccc(C(C)(C)C#N)cc2)c2c3cc(-c4cnc5ccccc5c4)ccc3ncc21 [NVP-BEZ235] (first compound 0.08 µM, partner dose 0.004 µM) | 111%
Cn1sc(=O)n(Cc2ccccc2)c1=O + CCN(CC)CCNC(=O)c1c(C)[nH]c(/C=C2\C(=O)Nc3ccc(F)cc32)c1C [sunitinib] (first compound 0.4 µM, partner dose 0.4 µM) | 15.6%
CC1(C)CCC(c2ccc(Cl)cc2)=C(CN2CCN(c3ccc(C(=O)NS(=O)(=O)c4ccc(N[C@H](CCN5CCOCC5)CSc5ccccc5)c(S(=O)(=O)C(F)(F)F)c4)cc3)CC2)C1 + Cc1nc(Nc2ncc(C(=O)Nc3c(C)cccc3Cl)s2)cc(N2CCN(CCO)CC2)n1 [dasatanib] (first compound 0.4 µM, partner dose 0.004 µM) | 96.6%
Cn1cnc2c(F)c(Nc3ccc(Br)cc3Cl)c(C(=O)NOCCO)cc21 [selumetinib] + Cn1c(Nc2ccc(C(F)(F)F)cc2)nc2cc(Oc3ccnc(-c4ncc(C(F)(F)F)[nH]4)c3)ccc21 [CHIR265] (first compound 0.015 µM, partner dose 0.08 µM) | 686%
C[C@@H](N)c1ccc(C(=O)Nc2ccnc3[nH]ccc23)cc1 + Nc1ncn([C@H]2C[C@H](O)[C@@H](CO)O2)c(=O)n1 [decitabine] (first compound 0.4 µM, partner dose 0.1 µM) | 67.1%
CC1(C)CCC(c2ccc(Cl)cc2)=C(CN2CCN(c3ccc(C(=O)NS(=O)(=O)c4ccc(N[C@H](CCN5CCOCC5)CSc5ccccc5)c(S(=O)(=O)C(F)(F)F)c4)cc3)CC2)C1 + COCC[n+]1c2c(n(Cc3cnccn3)c1C)C(=O)c1ccccc1C2=O [YM155] (first compound 0.4 µM, partner dose 0.0004 µM) | 82.8%
Cn1sc(=O)n(Cc2ccccc2)c1=O + CS(=O)(=O)CCNCc1ccc(-c2ccc3ncnc(Nc4ccc(OCc5cccc(F)c5)c(Cl)c4)c3c2)o1 [lapatinib] (first compound 0.4 µM, partner dose 0.8 µM) | 78.6%
Cn1cnc2c(F)c(Nc3ccc(Br)cc3Cl)c(C(=O)NOCCO)cc21 [selumetinib] + Nc1nc(F)nc2c1ncn2[C@@H]1O[C@H](CO)[C@@H](O)[C@@H]1O [fludarabine] (first compound 0.015 µM, partner dose 0.2 µM) | 230%
CS(=O)(=O)c1ccc(C(=O)Nc2ccc(Cl)c(-c3ccccn3)c2)c(Cl)c1 [vismodegib] + CC(C)C[C@H](NC(=O)[C@H](Cc1ccccc1)NC(=O)c1cnccn1)B(O)O [Bortezomib] (first compound 1 µM, partner dose 0.001 µM) | 41.7%
CC1(C)CCC(c2ccc(Cl)cc2)=C(CN2CCN(c3ccc(C(=O)NS(=O)(=O)c4ccc(N[C@H](CCN5CCOCC5)CSc5ccccc5)c(S(=O)(=O)C(F)(F)F)c4)cc3)CC2)C1 + C=C(c1ccc(C(=O)O)cc1)c1cc2c(cc1C)C(C)(C)CCC2(C)C [Bexarotene] (first compound 0.4 µM, partner dose 2 µM) | 192%
CS(=O)(=O)c1ccc(C(=O)Nc2ccc(Cl)c(-c3ccccn3)c2)c(Cl)c1 [vismodegib] + CC(=O)c1c(C)c2cnc(Nc3ccc(N4CCNCC4)cn3)nc2n(C2CCCC2)c1=O [palbociclib] (first compound 1 µM, partner dose 0.04 µM) | 70.5%
NC(=O)c1ccc(N(C(N)=O)c2c(F)cccc2F)nc1-c1ccc(F)cc1F + C#Cc1cccc(Nc2ncnc3cc(OCCOC)c(OCCOC)cc23)c1 [erlotinib] (first compound 0.4 µM, partner dose 0.8 µM) | 94.6%
CS(=O)(=O)c1ccc(C(=O)Nc2ccc(Cl)c(-c3ccccn3)c2)c(Cl)c1 [vismodegib] + Nc1nc(F)nc2c1ncn2[C@@H]1O[C@H](CO)[C@@H](O)[C@@H]1O [fludarabine] (first compound 1 µM, partner dose 0.2 µM) | 181%
NC(=O)c1ccc(N(C(N)=O)c2c(F)cccc2F)nc1-c1ccc(F)cc1F + C=CCNC1=C2C[C@@H](C)C[C@H](OC)[C@H](O)[C@@H](C)/C=C(\C)[C@H](OC(N)=O)[C@@H](OC)/C=C\C=C(/C)C(=O)NC(=CC1=O)C2=O [Tanespimycin] (first compound 0.4 µM, partner dose 0.002 µM) | 91.4%
CC(=O)O[C@@]12CO[C@@H]1C[C@H](O)[C@@]1(C)C(=O)[C@H](O)C3=C(C)[C@@H](OC(=O)[C@H](O)[C@@H](NC(=O)OC(C)(C)C)c4ccccc4)C[C@@](O)([C@@H](OC(=O)c4ccccc4)[C@H]21)C3(C)C [Docetaxel] + C=C(c1ccc(C(=O)O)cc1)c1cc2c(cc1C)C(C)(C)CCC2(C)C [Bexarotene] (first compound 0.0001 µM, partner dose 2 µM) | 175%
CC(=O)O[C@@]12CO[C@@H]1C[C@H](O)[C@@]1(C)C(=O)[C@H](O)C3=C(C)[C@@H](OC(=O)[C@H](O)[C@@H](NC(=O)OC(C)(C)C)c4ccccc4)C[C@@](O)([C@@H](OC(=O)c4ccccc4)[C@H]21)C3(C)C [Docetaxel] + C[C@]1(c2nc3c(C(N)=O)cccc3[nH]2)CCCN1 [Veliparib] (first compound 0.0001 µM, partner dose 1.4 µM) | 666%
CCN(CC)CCNC(=O)c1c(C)[nH]c(/C=C2\C(=O)Nc3ccc(F)cc32)c1C [sunitinib] + OCc1c[nH]c2ccccc12 [Indole-3-carbinol] (first compound 0.4 µM, partner dose 0.8 µM) | 120%
C[C@]1(O)C[C@@H](c2nc(-c3ccc4ccc(-c5ccccc5)nc4c3)c3c(N)nccn32)C1 + CCCS(=O)(=O)Nc1ccc(F)c(C(=O)c2c[nH]c3ncc(Cl)cc23)c1F [PLX4720] (first compound 0.4 µM, partner dose 0.08 µM) | 358%
Cn1cnc2c(F)c(Nc3ccc(Br)cc3Cl)c(C(=O)NOCCO)cc21 [selumetinib] + C#Cc1cccc(Nc2ncnc3cc(OCCOC)c(OCCOC)cc23)c1 [erlotinib] (first compound 0.015 µM, partner dose 0.8 µM) | 185%
Cn1sc(=O)n(Cc2ccccc2)c1=O + OCc1c[nH]c2ccccc12 [Indole-3-carbinol] (first compound 0.4 µM, partner dose 0.8 µM) | 23.2%
Cn1cnc2c(F)c(Nc3ccc(Br)cc3Cl)c(C(=O)NOCCO)cc21 [selumetinib] + C[C@@H](Oc1cc(-c2cnn(C3CCNCC3)c2)cnc1N)c1c(Cl)ccc(F)c1Cl [Crizotinib] (first compound 0.015 µM, partner dose 0.2 µM) | 165%
NC(=O)c1ccc(N(C(N)=O)c2c(F)cccc2F)nc1-c1ccc(F)cc1F + Clc1ccc(Nc2nnc(Cc3ccncc3)c3ccccc23)cc1 [vatalanib] (first compound 0.4 µM, partner dose 2 µM) | 70.8%
Cn1sc(=O)n(Cc2ccccc2)c1=O + Clc1ccc(Nc2nnc(Cc3ccncc3)c3ccccc23)cc1 [vatalanib] (first compound 0.4 µM, partner dose 2 µM) | 83.5%
COc1ccc(C2=N[C@@H](c3ccc(Cl)cc3)[C@@H](c3ccc(Cl)cc3)N2C(=O)N2CCNC(=O)C2)c(OC(C)C)c1 [Nutlin-3] + CC(=O)c1c(C)c2cnc(Nc3ccc(N4CCNCC4)cn3)nc2n(C2CCCC2)c1=O [palbociclib] (first compound 0.1 µM, partner dose 0.04 µM) | 80%
COc1ccc(C2=N[C@@H](c3ccc(Cl)cc3)[C@@H](c3ccc(Cl)cc3)N2C(=O)N2CCNC(=O)C2)c(OC(C)C)c1 [Nutlin-3] + Cn1c(=O)n(-c2ccc(C(C)(C)C#N)cc2)c2c3cc(-c4cnc5ccccc5c4)ccc3ncc21 [NVP-BEZ235] (first compound 0.1 µM, partner dose 0.004 µM) | 63%
NC(=O)c1ccc(N(C(N)=O)c2c(F)cccc2F)nc1-c1ccc(F)cc1F + C=C(c1ccc(C(=O)O)cc1)c1cc2c(cc1C)C(C)(C)CCC2(C)C [Bexarotene] (first compound 0.4 µM, partner dose 2 µM) | 110%

An excerpt of these results, as comma-separated lines.
Compound,cleaved PARP positive nuclei fraction
"Cn1cnc2c(F)c(Nc3ccc(Br)cc3Cl)c(C(=O)NOCCO)cc21 [selumetinib] + Nc1nc(F)nc2c1ncn2[C@@H]1O[C@H](CO)[C@@H](O)[C@@H]1O [fludarabine] (first compound 0.015 µM, partner dose 0.2 µM)",230%
"CS(=O)(=O)c1ccc(C(=O)Nc2ccc(Cl)c(-c3ccccn3)c2)c(Cl)c1 [vismodegib] + CC(C)C[C@H](NC(=O)[C@H](Cc1ccccc1)NC(=O)c1cnccn1)B(O)O [Bortezomib] (first compound 1 µM, partner dose 0.001 µM)",41.7%
